In PubChem BioAssay AID504834 (National Center for Advancing Translational Sciences (NCATS), 2011):
In all, about 320,000 compounds went through this assay and about 22,000 (6.9%) were called active. This list was built around the results that the source calls inconclusive (neither active nor inactive); the mix of calls is not that of the screen. The call rests on the fitted dose curve; in most records, active means well fitted inhibition curve with a large enough effect; inconclusive means small, poorly fitted or top-dose-only effect, or another doubt; inactive means no such curve, though single readings can be large or run the other way. A potency beside an inconclusive call is a rough fit, not a confirmed value.

Test: Primary qHTS for delayed death inhibitors of the malarial parasite plastid, 96 hour incubation
Conditions: P. falciparum luciferase reporter growth; series mostly up to 28.7 µM
How it was run: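 Luminescence readout: decreased luciferase signal marks inhibited growth of reporter-expressing P. falciparum in infected red cells (2% hematocrit, 0.05% parasitemia final), exposed to compound two generations (96 h, 37 C, 5% CO2).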
Potency means the concentration at half of the fitted maximal effect.

| SMILES | Potency |
| --- | --- |
| O=C(Nc1ccc(S(=O)(=O)N2CCCCC2c2cccnc2)cc1)c1ccccc1F (stereo not drawn) | inconclusive: 13.1 µM [inhibitor, single point] |
| CCc1ccc(NC2=NCC(c3ccccc3)S2)cc1 (stereo not drawn) | inactive |
| COc1cccc(C(=O)NC2CCCc3ccccc32)c1 (stereo not drawn) | inconclusive: 18.5 µM [inhibitor, single point] |
| Cc1nc(NC(=O)C2CC2)sc1C(=O)Nc1cccc(Cl)c1 | inconclusive: 13.1 µM [inhibitor, partial curve, poor fit] |
| CN(C(=O)c1ccc2c(Cl)c3c(nc2c1)CCC3)c1ccccc1 | inconclusive: 18.5 µM [inhibitor, single point] |
| COc1ccc2c(c1OC)C(=O)N1C2SC(C)(C)[C@H]1C(=O)NC1CCCC1 (stereo partly drawn) | inconclusive: 0.0029 µM [inhibitor, full curve, poor fit] |
| Cc1ccc(CNC(=O)C2CCCN(S(=O)(=O)c3c(C)noc3/C=C/N(C)C)C2)cc1 (stereo not drawn) | inconclusive: 18.5 µM [inhibitor, single point] |
| CCC1Sc2ccc(S(=O)(=O)CCC(=O)Nc3ccccc3Br)cc2NC1=O (stereo not drawn) | inconclusive: 18.5 µM [inhibitor, single point] |
| CC(=O)Nc1nc(COc2ccc3ccccc3c2)cs1 | inactive |
| CN(C)S(=O)(=O)N1CCC(Cc2ccccc2)CC1 | inconclusive: 11.7 µM [inhibitor, partial curve, poor fit] |
| CCCN(CCC)C(=O)Cn1c(=O)n(CCC(=O)NCCc2ccccc2)c(=O)c2ccccc21 | active: 9.28 µM |
| CC(C)CN(C(=O)C1CCCC1)C1CCS(=O)(=O)C1 (stereo not drawn) | inactive |
| O=C(CC1C(=O)NCCN1Cc1c(F)cccc1Cl)NC1CCCCCC1 (stereo not drawn) | inconclusive: 18.5 µM [inhibitor, single point] |
| O=C(Nc1ccccc1)Nn1cnnc1 | inactive |
| C/C(CCC(C)C)=N\NC(=S)NCc1ccccc1 | inconclusive: 14.7 µM [inhibitor, partial curve] |
| COc1ccc(CC2(CO)CCN(Cc3ccc4nsnc4c3)CC2)cc1 | inconclusive: 18.5 µM [inhibitor, single point] |
| CC(C)(C)CN1CCN(Cc2c[nH]c3ccccc23)CC1CCO (stereo not drawn) | inconclusive: 18.5 µM [inhibitor, single point] |
| CCSc1ccccc1C(=O)Nc1ccc([N+](=O)[O-])cc1OC | inactive |
| CC(=O)Nc1ccc(S(=O)(=O)N2CCSC2c2ccccc2)cc1 (stereo not drawn) | inconclusive: 13.1 µM [inhibitor, partial curve, poor fit] |
| CC(=O)Nc1cccc(NC(=O)CSc2n[nH]c(-c3ccccc3)n2)c1 | inactive |
| N#Cc1c(NC(=O)c2ccccc2Cl)n(Cc2ccccc2)c2nc3ccccc3nc12 | inconclusive: 18.5 µM [inhibitor, single point] |
| O=C(Nc1ccncc1)c1cccs1 | inconclusive: 14.7 µM [inhibitor, single point] |
| Cc1cc(Cl)ccc1Oc1ccccc1C(=O)CC#N | inconclusive: 1.31 µM [inhibitor, full curve, poor fit] |

Ordered by number of heavy atoms (low to high): 14 of the compounds above

| SMILES | Potency |
| --- | --- |
| O=C(Nc1ccncc1)c1cccs1 | inconclusive: 14.7 µM [inhibitor, single point] |
| O=C(Nc1ccccc1)Nn1cnnc1 | inactive |
| C/C(CCC(C)C)=N\NC(=S)NCc1ccccc1 | inconclusive: 14.7 µM [inhibitor, partial curve] |
| CCc1ccc(NC2=NCC(c3ccccc3)S2)cc1 (stereo not drawn) | inactive |
| COc1cccc(C(=O)NC2CCCc3ccccc32)c1 (stereo not drawn) | inconclusive: 18.5 µM [inhibitor, single point] |
| Cc1nc(NC(=O)C2CC2)sc1C(=O)Nc1cccc(Cl)c1 | inconclusive: 13.1 µM [inhibitor, partial curve, poor fit] |
| CCSc1ccccc1C(=O)Nc1ccc([N+](=O)[O-])cc1OC | inactive |
| CC(C)(C)CN1CCN(Cc2c[nH]c3ccccc23)CC1CCO (stereo not drawn) | inconclusive: 18.5 µM [inhibitor, single point] |
| CC(=O)Nc1cccc(NC(=O)CSc2n[nH]c(-c3ccccc3)n2)c1 | inactive |
| COc1ccc2c(c1OC)C(=O)N1C2SC(C)(C)[C@H]1C(=O)NC1CCCC1 (stereo partly drawn) | inconclusive: 0.0029 µM [inhibitor, full curve, poor fit] |
| CCC1Sc2ccc(S(=O)(=O)CCC(=O)Nc3ccccc3Br)cc2NC1=O (stereo not drawn) | inconclusive: 18.5 µM [inhibitor, single point] |
| Cc1ccc(CNC(=O)C2CCCN(S(=O)(=O)c3c(C)noc3/C=C/N(C)C)C2)cc1 (stereo not drawn) | inconclusive: 18.5 µM [inhibitor, single point] |
| N#Cc1c(NC(=O)c2ccccc2Cl)n(Cc2ccccc2)c2nc3ccccc3nc12 | inconclusive: 18.5 µM [inhibitor, single point] |
| CCCN(CCC)C(=O)Cn1c(=O)n(CCC(=O)NCCc2ccccc2)c(=O)c2ccccc21 | active: 9.28 µM |

Next results

| SMILES | Potency |
| --- | --- |
| CN(C)CCn1c(=O)n(Cc2ccco2)c(=O)c2c3c(sc21)CCCCC3 | active: 7.38 µM |
| CC[n+]1c(/C=C(\C)SC)sc2ccccc21 | inconclusive: 0.208 µM [inhibitor, full curve] |
| CCOc1ccc(CNC(=O)CCC(=O)n2nc(C)c3ccccc32)cc1 | inconclusive: 3.29 µM [inhibitor, partial curve, poor fit] |
| O=C(CSc1nnc(-c2ccncc2)n1-c1ccccc1)N1CCN(c2ccc(Cl)cc2)CC1 | inconclusive: 2.94 µM [inhibitor, full curve, poor fit] |
| COc1ccc(S(=O)(=O)Nc2nc3n(n2)C(c2ccc(Cl)cc2)CC(=O)N3)cc1 (stereo not drawn) | inconclusive: 2.62 µM [inhibitor, single point] |
| Cc1ccc(NC(=O)CSc2nnc(-c3ccccc3Br)o2)cc1C | inconclusive: 13.1 µM [inhibitor, single point] |
| COc1cc(NC(=O)CCN2CCN(Cc3ccccc3)CC2)cc(OC)c1 | inconclusive: 9.28 µM [inhibitor, partial curve, poor fit] |
| CC(NC(=O)c1cnc2ccccc2n1)c1ccccc1 (stereo not drawn) | inactive |
| Cc1c(CCOC(=O)c2cc([N+](=O)[O-])cc([N+](=O)[O-])c2)sc[n+]1CC(=O)c1ccc(Br)cc1 | inconclusive: 1.65 µM [inhibitor, full curve] |
| CC(=O)NC(=S)Nc1ccccc1C(=O)NC1CCCCC1 | active: 8.28 µM |
| COc1ccc(Cc2nnc3sc(SCC(=O)Nc4ccccc4)nn3c2=O)cc1OC | inconclusive: 5.86 µM [inhibitor, partial curve] |
| O=C(CNc1cccc(C(F)(F)F)c1)N/N=C/c1ccccc1C(=O)O | inactive |
| CC1CC(C)CN(C(=O)C2CCN(S(=O)(=O)c3c(Cl)cccc3Cl)CC2)C1 (stereo not drawn) | inconclusive: 18.5 µM [inhibitor, single point] |
| N#C/C(=N\Nc1cccc(F)c1)C(=O)C1CC1 | inconclusive: 4.15 µM [inhibitor, partial curve, poor fit] |
| Cc1cccc(-c2nnc(SC(C)C(=O)N3CCOCC3)o2)c1 (stereo not drawn) | inconclusive: 10.4 µM [inhibitor, partial curve, poor fit] |
| c1ccc2sc(NC3=NCN(CC4CCCO4)CN3)nc2c1 (stereo not drawn) | inconclusive: 14.7 µM [inhibitor, partial curve, poor fit] |
| COc1ccccc1OCCSc1nc2ccc([N+](=O)[O-])cc2s1 | inconclusive: 18.5 µM [inhibitor, single point] |
| O=C(NCCCN1CCCC1)C1CCC(=O)N1C1CCCCC1 (stereo not drawn) | inactive |
| NS(=O)(=O)c1ccc(CCNC(=O)CSCc2ccccc2)cc1 | inconclusive: 23.3 µM [inhibitor, single point] |
| CCn1cnc2cc(NCc3ccc(Cl)cc3)ccc21 | inactive |
| CN1CCC(CN)(N2CCN(c3ccccc3)CC2)CC1 | active: 11.7 µM |
| COc1ccc(C(C(=O)NC2CCCCC2)N(C(=O)c2cccs2)c2ccc3c(c2)OCO3)cc1 (stereo not drawn) | inconclusive: 10.4 µM [inhibitor, single point] |
| CCOC(=O)c1c(/C=N/Nc2ccccc2)c2sc(C)cc2n1C | inconclusive: 18.5 µM [inhibitor, single point] |

Looked up above.
Potency, CC(C)(C)CN1CCN(Cc2c[nH]c3ccccc23)CC1CCO (stereo not drawn) reads inconclusive: 18.5 µM [inhibitor, single point]
Potency, CCOC(=O)c1c(/C=N/Nc2ccccc2)c2sc(C)cc2n1C reads inconclusive: 18.5 µM [inhibitor, single point]

(further entries)

| SMILES | Potency |
| --- | --- |
| CCOc1ccc(NC(=O)c2c(C)nn(Cc3ccccc3)c2Cl)cc1 | inactive |
| COC(=O)C(C)Sc1nc2c(cnn2-c2ccc(F)cc2)c(=O)[nH]1 (stereo not drawn) | inconclusive: 9.28 µM [inhibitor, partial curve, poor fit] |
| Cc1ccc(N2C(=O)NC(=O)C3(Cc4ccccc4N4CCCC43)C2=O)cc1 (stereo not drawn) | inconclusive: 0.828 µM [inhibitor, full curve] |
| O=C1CCCN2N=C(SCC(=O)Nc3ccc(Cl)cc3)SC2=N1 | active: 10.4 µM |
| O=C(CSc1nnnn1-c1ccccc1)NCC1(N2CCCCC2)CCCCC1 | inconclusive: 7.38 µM [inhibitor, partial curve, poor fit] |
| Cc1ccc(NC(=O)Nc2nc(-c3ccc(C)s3)cs2)cc1 | active: 14.7 µM |
| CCc1c(C)c(C#N)c2[nH]c3ccccc3n2c1=S | inconclusive: 14.7 µM [inhibitor, partial curve, poor fit] |
| c1ccc(-c2nc3nc4ccccc4nc3n2CC2CCCO2)cc1 (stereo not drawn) | inactive |
| Cn1c(=O)c2c(nc(SCCOc3ccc4ccc(=O)oc4c3)n2C)n(C)c1=O | active: 13.1 µM |
| NS(=O)(=O)c1ccc(Nc2ccc([N+](=O)[O-])c3nonc23)cc1 | active: 9.28 µM |
| CC(=O)N(C(C)=O)c1nc(-c2ccccc2)cn1/N=C/c1ccccc1 | inactive |
| CC(C)(C)C1COc2ccccc2N1C(=O)c1cccc(Cl)c1 (stereo not drawn) | inconclusive: 1.17 µM [inhibitor, partial curve, poor fit] |
| O=C1C(=O)N(Cc2cccnc2)C(c2ccccn2)/C1=C(/O)c1ccc(Br)cc1 (stereo not drawn) | inactive |
| O=C(Nc1ccccc1[N+](=O)[O-])c1cccc(N2C(=O)CCC2=O)c1 | inconclusive: 9.28 µM [inhibitor, single point] |
| CCOC(=O)/C(C#N)=C/c1c(N2CCN(c3ccc(OC)cc3)CC2)nc2c(C)cccn2c1=O | active: 11.7 µM |
| Nc1c2nc(-c3ccccc3)[nH]c(=O)c2nc(=O)n1-c1ccccc1 | inconclusive: 18.5 µM [inhibitor, single point] |
| COc1cc(-c2cc(C(=O)Nc3ccc(O)cc3)c3ccccc3n2)cc(OC)c1OC | inconclusive: 14.7 µM [inhibitor, partial curve, poor fit] |
| N#C/C(=C\c1ccc(N2CCOCC2)o1)C(=O)NC1CCCCC1 | inconclusive: 20.8 µM [inhibitor, partial curve, poor fit] |
| Cn1c(=O)n(C)c2cc(NC(=O)Cc3ccccc3[N+](=O)[O-])ccc21 | inconclusive: 1.65 µM [inhibitor, partial curve, poor fit] |
| O=C(Nc1ccc(N2CCN(C(=O)c3cccs3)CC2)cc1)c1ccco1 | inconclusive: 7.38 µM [inhibitor, partial curve, poor fit] |
| COCCN(Cc1cc2cc3c(cc2nc1Cl)OCO3)C(=O)Nc1ccccc1OC | inconclusive: 10.4 µM [inhibitor, partial curve, poor fit] |
| Nc1nonc1OCCCCOc1nonc1N | inconclusive: 0.0037 µM [inhibitor, partial curve, poor fit] |
